PubChem BioAssay AID1224830 – NIAID | 2016
Aim: 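Host factors that control LPS-induced TNF expression in human macrophages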 (primary screen). Cell system: human THP-1 monocytic leukaemia cells, TNF dual-luciferase reporter clone, PMA-differentiated to macrophage-like cells. Reagent: siRNA pool against human genes, 50 nM. Timing: LPS for 4 h, given about 3 days after siRNA transfection. Treatment: bacterial LPS (TLR4 ligand), 10 ng/ml. Measurement: 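Ratio of firefly to renilla light, scaled to the plate median and expressed as a robust z-score per replicate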. Reading the numbers: TNF reporter robust z-score: higher = stronger TNF reporter response to LPS. Rule for the call: 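a well is active when its z-score exceeds 2.8 or falls below -1.5; control wells carry no call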.
Here is a random part of about 18,000 deposited reagents. In the full data, about 2,900 (16%) are marked active. 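Calls are made per well; low scores hint the gene aids the LPS response, high scores that it dampens it.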 Entries without a mark were called inactive. Repeated entries: four replicate wells of each siRNA pool. Reagent sequences are not shown.

BAD → TNF reporter robust z-score: -1.69 (active)
BAD → TNF reporter robust z-score: -0.55
BAD → TNF reporter robust z-score: -0.2
BAD → TNF reporter robust z-score: 0.59
PDHA1 → TNF reporter robust z-score: -1.25
PDHA1 → TNF reporter robust z-score: -0.25
PDHA1 → TNF reporter robust z-score: -1.1
PDHA1 → TNF reporter robust z-score: -0.67
IRF7 → TNF reporter robust z-score: 0.74
IRF7 → TNF reporter robust z-score: 0.91
IRF7 → TNF reporter robust z-score: -0.29
IRF7 → TNF reporter robust z-score: 1.87
SPRR1A → TNF reporter robust z-score: -0.99
SPRR1A → TNF reporter robust z-score: -1.1
SPRR1A → TNF reporter robust z-score: -0.65
SPRR1A → TNF reporter robust z-score: -0.18
NR2F2 → TNF reporter robust z-score: 12.1 (active)
NR2F2 → TNF reporter robust z-score: 0.97
NR2F2 → TNF reporter robust z-score: -0.52
NR2F2 → TNF reporter robust z-score: 0.68
STRADA → TNF reporter robust z-score: 0.22
STRADA → TNF reporter robust z-score: 0.8
STRADA → TNF reporter robust z-score: -0.9
STRADA → TNF reporter robust z-score: -0.78
AQP10 → TNF reporter robust z-score: 0.05
AQP10 → TNF reporter robust z-score: 0.78
AQP10 → TNF reporter robust z-score: 0.45
AQP10 → TNF reporter robust z-score: 0.85
SLC27A4 → TNF reporter robust z-score: -0.31
SLC27A4 → TNF reporter robust z-score: 1.43
SLC27A4 → TNF reporter robust z-score: 0.21
SLC27A4 → TNF reporter robust z-score: 1.49
RAB10 → TNF reporter robust z-score: 1.56
RAB10 → TNF reporter robust z-score: 3.97 (active)
RAB10 → TNF reporter robust z-score: 2.53
RAB10 → TNF reporter robust z-score: 2.27
PIGT → TNF reporter robust z-score: -0.83
PIGT → TNF reporter robust z-score: -0.25
PIGT → TNF reporter robust z-score: 0.04
PIGT → TNF reporter robust z-score: 0.08
STOM → TNF reporter robust z-score: -0.84
STOM → TNF reporter robust z-score: -0.8
STOM → TNF reporter robust z-score: -0.95
STOM → TNF reporter robust z-score: -0.64
EEF1B2 → TNF reporter robust z-score: 0.21
EEF1B2 → TNF reporter robust z-score: -0.13
EEF1B2 → TNF reporter robust z-score: 0.38
EEF1B2 → TNF reporter robust z-score: 0.56
